Data source: PubChem BioAssay AID1671195 (Yale University, 2021)
The whole screen tested about 22,000 reagents; this is an unselected part. In the full data, about 1,510 (6.9%) got an active call. 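Active includes knockdowns raising or lowering LDL uptake; positive z-scores mean more uptake, negative mean less.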 Entries without a mark were called inactive.

- Test: 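Knockdowns that increase or decrease uptake of fluorescent LDL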 (primary screen)
- Cells: human Huh7 hepatoma cells
- Reagent: siRNA pool against human genes, 18 nM
- Duration: about 2 to 2.5 days of knockdown, then 8 h LDL uptake
- Conditions: DiI-labelled LDL at 30 µg/ml for 8 h, in lipoprotein-deficient serum medium
- Detection: 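Fluorescent LDL signal imaged in cells, scaled to the plate median, robust z-score for each replicate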
- Scale: robust z-score: higher = more LDL uptake after knockdown
- Active means: 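a gene counts as active if at least two replicate z-scores exceed ±2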

gene,PubChem SID,"robust z-score, replicate 1","robust z-score, replicate 2","robust z-score, replicate 3"
CENPS (centromere protein S),SID442898632,-0.425,-0.277,-0.862
LIN7C (lin-7 cell polarity scaffold C),SID442898665,-0.694,-0.598,-0.28
LOC388022 (retired record),SID442897330,-0.508,-0.374,-0.241
PDPK1 (3-phosphoinositide dependent protein kinase 1),SID442900166,-0.73,-1.17,-0.267
CYP1B1 (cytochrome P450 family 1 subfamily B member 1),SID442894883,0.152,-0.35,-0.13
HPRT1 (hypoxanthine phosphoribosyltransferase 1),SID442902539,-1.18,-1.13,-0.993
UBE2J1 (ubiquitin conjugating enzyme E2 J1),SID442903276,-0.665,-2.02,-1.09
XPO1 (exportin 1),SID442884222,0.637 (active),1.95,2.14
DLL4 (delta like canonical Notch ligand 4),SID442902456,-1.2,-1.01,-1.02
EEF1G (eukaryotic translation elongation factor 1 gamma),SID442900795,-0.605,-0.99,-0.83
"NUGGC (nuclear GTPase, germinal center associated)",SID442899976,-0.81,-0.896,-0.375
GPR174 (G protein-coupled receptor 174),SID442896292,-2.08,1.16,0.15
ANKRD26 (ankyrin repeat domain 26),SID442892841,0.328,-0.5,0.525
ZNF35 (zinc finger protein 35),SID442900840,-0.713,-0.968,-0.761
LOC440855 (retired record),SID442893451,0.043,0.0456,0.0571
MCOLN1 (mucolipin TRP cation channel 1),SID442888503,1.26,0.335,0.531
NCAM2 (neural cell adhesion molecule 2),SID442893773,-1.23,-0.131,1.4
GLYAT (glycine-N-acyltransferase),SID442902176,-1.33,-0.743,-0.998
CAPNS2 (calpain small subunit 2),SID442902799,-1.32,-0.367,-1.76
LOC107987397,SID442893742,-0.0392,0.0853,-0.000644
"ERCC3 (ERCC excision repair 3, TFIIH core complex helicase subunit)",SID442897472,-0.488,-0.247,-0.433
ZBTB41 (zinc finger and BTB domain containing 41),SID442884579,-2.66 (active),-2.7,-2.67
TOM1L1 (target of myb1 like 1 membrane trafficking protein),SID442895262,0.719,-1.01,-0.159
ZNF765 (zinc finger protein 765),SID442889209,0.553,0.472,0.761
ACD,SID442892389,0.287,-0.014,0.249
OR4N5 (olfactory receptor family 4 subfamily N member 5),SID442901534,-0.584,-1.15,-1.01
PDXK (pyridoxal kinase),SID442892902,-0.193,0.0783,0.452
PDXK (pyridoxal kinase),SID442904779,-1.95,-1.9,-1.83
COL10A1 (collagen type X alpha 1 chain),SID442889749,0.673,0.588,0.281
SCRN2 (secernin 2),SID442886278,1.08,1.79,0.749
NIN (ninein),SID442900906,-1.42,-1.09,0.0386
MROH5 (maestro heat like repeat family member 5 (gene/pseudogene)),SID442898078,-0.487,-0.449,-0.441
GPATCH8 (G-patch domain containing 8),SID442902777,-1.4,-0.988,-1.05
LOC440942 (retired record),SID442900193,-0.445,-1.05,-0.685
FZD6 (frizzled class receptor 6),SID442901020,-1.11,-1.31,-0.0962
PDLIM5 (PDZ and LIM domain 5),SID442902515,-0.649,-1.06,-1.58
TRNAU1AP (tRNA selenocysteine 1 associated protein 1),SID442890085,-0.316,1.29,0.419
RHEBL1 (RHEB like 1),SID442883514,1.27 (active),4.18,2.8
ZNF418 (zinc finger protein 418),SID442885855,1.21,0.997,1.82
LIN37 (lin-37 DREAM MuvB core complex component),SID442904388,-0.847,-1.81,-2.19
ACYP1 (acylphosphatase 1),SID442899843,-0.191,-0.714,-1.13
HEATR4 (HEAT repeat containing 4),SID442885164,1.68,1.81,1.44
TICRR (TOPBP1 interacting checkpoint and replication regulator),SID442896535,-0.366,-0.207,-0.278
"PLAU (plasminogen activator, urokinase)",SID442901665,-1.07,-0.889,-0.849
SLC6A13,SID442901866,-1.18,-1,-0.749
CYP19A1 (cytochrome P450 family 19 subfamily A member 1),SID442895215,-0.275,-0.0963,-0.0675

Records above whose gene name begins with G or g:
gene,PubChem SID,"robust z-score, replicate 1","robust z-score, replicate 2","robust z-score, replicate 3"
GPR174 (G protein-coupled receptor 174),SID442896292,-2.08,1.16,0.15
GLYAT (glycine-N-acyltransferase),SID442902176,-1.33,-0.743,-0.998
GPATCH8 (G-patch domain containing 8),SID442902777,-1.4,-0.988,-1.05
